Measured values: the supplement of paper PMC3334620
Whole data set: some 33,000 sequences, median “E-score (-0.5 to 0.5)” near -0.016, cut for the highest 2% near 0.3. Some of the results follow.

These sequences were tested against T1, Yer184c (UniProt P39961) (assay: PBM E-score (8-mer binding enrichment) (E-score (-0.5 to 0.5)); higher = stronger / more preferred TF binding). Settings: protein concentration: 100 nM; construct: GST-full length.
T1 sequence: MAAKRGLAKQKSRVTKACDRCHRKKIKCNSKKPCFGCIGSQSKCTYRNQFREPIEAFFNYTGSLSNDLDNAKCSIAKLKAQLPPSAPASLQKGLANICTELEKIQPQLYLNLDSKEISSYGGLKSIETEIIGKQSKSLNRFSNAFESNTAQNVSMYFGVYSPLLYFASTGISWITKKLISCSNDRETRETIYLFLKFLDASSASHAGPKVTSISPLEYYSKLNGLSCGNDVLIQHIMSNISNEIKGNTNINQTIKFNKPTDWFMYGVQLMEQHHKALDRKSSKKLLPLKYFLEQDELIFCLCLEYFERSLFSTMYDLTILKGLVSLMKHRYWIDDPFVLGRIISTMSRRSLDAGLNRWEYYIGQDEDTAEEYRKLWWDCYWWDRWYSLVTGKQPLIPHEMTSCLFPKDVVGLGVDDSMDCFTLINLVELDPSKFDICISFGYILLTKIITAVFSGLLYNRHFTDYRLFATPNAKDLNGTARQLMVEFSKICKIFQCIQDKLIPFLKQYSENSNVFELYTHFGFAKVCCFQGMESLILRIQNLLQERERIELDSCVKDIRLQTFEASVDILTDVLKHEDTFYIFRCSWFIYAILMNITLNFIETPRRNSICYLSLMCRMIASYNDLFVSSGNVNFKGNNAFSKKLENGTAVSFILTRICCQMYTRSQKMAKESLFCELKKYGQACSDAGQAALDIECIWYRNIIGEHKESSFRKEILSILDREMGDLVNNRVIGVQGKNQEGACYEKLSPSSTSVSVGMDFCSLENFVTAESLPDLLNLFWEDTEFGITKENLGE
In short: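 Universal all-10-mer Agilent arrays, double-stranded by primer extension on fresh or once-stripped slides, were probed with about 100-200 nM GST-tagged yeast transcription factors made by PURExpress. Fluorescent anti-GST detected bound protein, and masliner normalised the scans. E-scores from the Universal PBM Analysis Suite were given to each ungapped eight-base word pooled with its reverse complement.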

| Sequence | PBM E-score |
| --- | --- |
| ATAGACCG | 0.0754 |
| CTTCGCTC | -0.0449 |
| CTGCCGTC | -0.066 |
| GAAATCCA | 0.0984 |
| GGTTAATA | 0.182 |
| CAGCTGGG | -0.116 |
| AGGGACTG | -0.316 |
| ATACGCGG | -0.0243 |
| GTGTTTAA | 0.174 |
| ACGATTAG | 0.0575 |
| GCAAAAGA | -0.0659 |
| ATAGCCCG | -0.0476 |
| ATCAGATC | -9e-05 |
| CAATTGTA | 0.0264 |
| ACAACCCC | -0.288 |
| GATGGTAC | -0.0161 |
| AGACTACC | -0.00986 |
| ATCAAACC | 0.074 |
| GCATAGCC | -0.165 |
| AACGAGTA | 0.0483 |
| CGTGGATA | 0.0338 |
| ATCCAGTC | -0.0403 |
| AAGCGGTC | 0.03 |
| ACGTTCAG | -0.198 |
| GCGGTACA | 0.111 |

| Sequence | PBM E-score |
| --- | --- |
| AGCACACT | 0.00523 |
| CTGTTCGC | 0.142 |
| GTTACTAA | 0.0988 |
| GCCCACCC | -0.139 |
| CTGGGGTA | -0.223 |
| ATACCGTA | 0.0977 |
| GGGTCTAA | -0.0506 |
| GTCGGGTA | 0.0546 |
| CTTAGATA | 0.0883 |
| ATGGCCAT | -0.101 |
| AATCGCCT | 0.0835 |
| AACGCTCG | 0.122 |
| CCAAACTC | 0.00969 |
| GATGGGGC | -0.212 |
| ACCCGCGC | 0.242 |
| CGACCTAC | -0.186 |
| GGCCTACA | -0.0193 |
| CCGTACAG | 0.0195 |
| AAAATCGC | 0.104 |
| CGGGGAAC | 0.0883 |
| ACGGCAGG | -0.117 |
| GTATATGA | 0.116 |
| ATTTACTA | 0.172 |
| CCGGATAA | 0.4 |
| GGGTTCAA | 0.0459 |

A different layout for part of the listing above:
Sequence,PBM E-score
ATGGCCAT,-0.101
AATCGCCT,0.0835
AACGCTCG,0.122
CCAAACTC,0.00969

The listing continues.

| Sequence | PBM E-score |
| --- | --- |
| ATTTTTCG | 0.314 |
| CTCTCCCA | -0.211 |
| GTTGGAGA | 0.0278 |
| GTTGTGAA | 0.0223 |
| ACGGGAAT | 0.0267 |
| CTATTGTC | -0.0946 |
| ACCAAGTA | 0.0379 |
| TCCTCTCA | -0.228 |
| GATGGAAA | -0.0163 |
| TGTTCAAA | 0.15 |
| AGGTGTCA | 0.0413 |
| GGGTGCGA | -0.227 |
| AAAAATCA | 0.0944 |
| GTTCAGGA | -0.0568 |
| CCATACAA | 0.0684 |
| CCGAAAAA | 0.371 |
| CAAATTAC | 0.0501 |
| GAGACGAC | 0.0818 |
| CTTAGGAA | 0.12 |
| GACGTTAA | 0.0643 |
| TCAACTAA | 0.118 |
| ACGATAGG | -0.119 |
| AGAGTAAC | 0.0419 |
| AACTTAGG | 0.123 |
| GTCTGGCA | -0.16 |

| Sequence | PBM E-score |
| --- | --- |
| TGTGTAAA | 0.27 |
| ACCGTAGT | 0.127 |
| AACAATCA | 0.261 |
| AAACCCAA | 0.0937 |
| ATGAATTC | 0.158 |
| CAATCACA | -0.0229 |
| ATCATAGG | 0.0557 |
| CACTTTCC | 0.021 |
| ACCCGAAG | 0.0247 |
| GCGTTAGC | -0.0452 |
| CGGGGTTA | 0.133 |
| GGTTGCGA | 0.108 |
| AAGTTGCG | -0.029 |
| ATAGCAAT | 0.146 |
| AATGTTGC | 0.0568 |
| CAGGCACG | -0.157 |
| CCCGCTCC | -0.239 |
| AGATTGGC | -0.0896 |
| AAGGCCGC | 0.051 |
| AGAGCAGG | -0.0954 |
| TATCGAGA | 0.0597 |
| CCCAGGGG | -0.241 |
| ACAAGACT | -0.0529 |
| GGTAGCCA | -0.146 |
| AATCATAT | 0.109 |

Quoted at random: six records from the list

| Sequence | PBM E-score |
| --- | --- |
| AAGTTGCG | -0.029 |
| GGTTGCGA | 0.108 |
| AATCATAT | 0.109 |
| ACCGTAGT | 0.127 |
| CCCAGGGG | -0.241 |
| CCCGCTCC | -0.239 |

Next results

| Sequence | PBM E-score |
| --- | --- |
| CTGTGTAA | 0.15 |
| TAGGGAAA | -0.199 |
| CAGGATAC | -0.116 |
| CTTTCATA | 0.0871 |
| AAGCCTCC | -0.136 |
| GTGACAAC | 0.0577 |
| GCTAGAGA | -0.0348 |
| AAAATAGG | 0.129 |
| CCGGCGCC | 0.354 |
| GAGATGAA | 0.0633 |
| CGACTCTC | -0.0925 |
| GAAAGACC | -0.0964 |
| ACGGTTCG | -0.0961 |
| CTTGATTA | -0.0944 |
| CTATATCA | 0.095 |
| GGTGGACA | -0.207 |
| AAATTCGG | 0.302 |
| ATAGAGTG | -0.0689 |
| ACGTTCGA | -0.12 |
| AAAATGTA | -0.017 |
| ATGACCAG | -0.0699 |
| AGATGAAC | 0.151 |
| CCCGGGGC | 0.191 |
| ATGTACAC | -0.0534 |
| CACGCGGA | 0.181 |

| Sequence | PBM E-score |
| --- | --- |
| GAACCATC | 0.0341 |
| CCCTGACG | -0.104 |
| GCGGATAA | 0.224 |
| AACTCAGT | -0.146 |
| GACCAAAA | 0.309 |
| CCACCCAG | -0.237 |
| AACTACAC | 0.0662 |
| CCGCCAAA | 0.14 |
| TACACAAA | 0.301 |
| CCTGTGAA | 0.115 |
| GCTCTTAA | 0.101 |
| GGGGTAGA | -0.101 |
| GTATGGAA | -0.041 |
| GATAGTCA | -0.0754 |
| AATAGCTA | 0.105 |
| ATCTATAA | 0.132 |
| AAAGCATA | 0.0214 |
| GGGCTCCA | -0.301 |
| CATATTCC | -0.149 |
| CAGGTACA | -0.235 |
| CTTCGAGC | 0.0967 |
| AAAATCTC | -0.0791 |
| CTGACCAC | -0.0704 |
| GCCAAGAC | -0.16 |
| ATTCGCCA | 0.0246 |

| Sequence | PBM E-score |
| --- | --- |
| CGGCTCAA | 0.314 |
| TATTGTAA | -0.0132 |
| TCACCTCA | -0.072 |
| ATTGGCTG | -0.187 |
| GGATTCAC | 0.0148 |
| AGGCCTCC | -0.153 |
| GCTAACCA | -0.0625 |
| AGCCCTAG | -0.191 |
| ATGCTAAT | 0.0369 |
| CATTAAAA | 0.279 |
| CGTGATGA | -0.0921 |
| GAGCTTAC | -0.114 |
| GGAGGCCC | -0.297 |
| CGCCGGGC | 0.286 |
| AAGTCGCT | -0.196 |
| ACTTGACG | -0.151 |
| ACCCTCTG | -0.169 |
| CTTTGCGA | -0.0227 |
| AAGGCCTA | -0.159 |
| CGTGTTAG | 0.0729 |
| GCATGTTA | 0.103 |
| GAAAGGTC | -0.177 |
